Assay results from patent US20040147561A1, “Pyrid-2-one derivatives and methods of use” (priority 2002, published 2004).
Some entries share one result that the patent states for a list of compounds.

Protein sequences, listed by entry. Tags and fused reporters are not part of them.
UniProt Q00535, whole entry: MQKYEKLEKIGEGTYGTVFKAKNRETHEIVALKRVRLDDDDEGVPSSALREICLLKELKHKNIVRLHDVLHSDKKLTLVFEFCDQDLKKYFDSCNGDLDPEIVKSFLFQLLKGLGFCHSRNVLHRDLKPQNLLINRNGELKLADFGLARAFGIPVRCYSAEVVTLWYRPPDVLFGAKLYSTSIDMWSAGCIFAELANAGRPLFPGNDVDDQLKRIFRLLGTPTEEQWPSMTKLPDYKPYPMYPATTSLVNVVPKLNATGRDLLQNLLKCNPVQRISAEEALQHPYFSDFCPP

Legend:
[1] = biological target: T1, His-tagged cyclin 2/CDK2 (cyclin E2/CDK2) (Homo sapiens, UniProt P24941); assay: CDK2 kinase assay; assay type: biochemical; conditions: 1 nM enzyme, 1 μM Histone-H1, 25 μM ATP, 60 min at 25° C.
T1 construct: made in house; host or cells: Hi5 insect cells (baculovirus, pFastBacDual)

[2] = biological target: T2, His-tagged p25/CDK5 (Homo sapiens, UniProt Q00535); assay: CDK5 kinase assay; assay type: biochemical; conditions: 1 nM enzyme, 1 μM Histone-H1, 25 μM ATP, 60 min at 25° C.
T2 construct: made in house; host or cells: Hi5 insect cells (baculovirus co-infection; pFastBacHTb for p25, pFastBac1 for CDK5)

| SMILES | IC50 [1] [nM] | IC50 [2] [nM] |
| --- | --- | --- |
| CCOC(=O)c1cc(-c2csc(-c3ccnc(NCc4ccccc4)c3)n2)c(=O)[nH]c1C [Example 48, Ethyl 2-methyl-6-oxo-5-(2-(2-((phenylmethyl)amino)-4-pyridinyl)-1,3-thiazol-4-yl)-1,6-dihydro-3-pyridinecarboxylate] | < 500 | < 500 |
| CCOC(=O)c1cc(-c2csc(-c3ccnc(NCCNC(C)C)c3)n2)c(=O)[nH]c1C [Example 50, Ethyl 2-methyl-5-(2-(2-((2-((1-methylethyl)amino)ethyl)amino)-4-pyridinyl)-1,3-thiazol-4-yl)-6-oxo-1,6-dihydro-3-pyridinecarboxylate] | < 500 | < 500 |
| CCOC(=O)c1cc(-c2csc(-c3ccnc(NCCN(CC)CC)c3)n2)c(=O)[nH]c1C [Example 52, Ethyl 5-(2-(2-((2-(diethylamino)ethyl)amino)-4-pyridinyl)-1,3-thiazol-4-yl)-2-methyl-6-oxo-1,6-dihydro-3-pyridinecarboxylate] | < 500 | < 500 |
| CCOC(=O)c1cc(-c2csc(-c3ccnc(NCc4ccco4)c3)n2)c(=O)[nH]c1C [Example 53, Ethyl 5-(2-(2-[(fur-2-ylmethyl)-amino]-pyridin-4-yl}-thiazol-4-yl)-2-methyl-6-oxo-1,6-dihydro-3-pyridinecarboxylate] | < 500 | < 500 |
| CCOC(=O)c1cc(-c2csc(-c3ccnc(NCCc4cccs4)c3)n2)c(=O)[nH]c1C [Example 54, Ethyl 5-{2-[2-(2-thien-2-yl-ethylamino)-pyridin-4-yl]-thiazol-4-yl}-2-methyl-6-oxo-1,6-dihydro-3-pyridinecarboxylate] | < 500 | < 500 |
| CCCCNc1cc(-c2nc(-c3cc(C(=O)OCC)c(C)[nH]c3=O)cs2)ccn1 [Example 56, Ethyl 5-[2-(2-butylamino-pyridin-4-yl)-thiazol-4-yl]-2-methyl-6-oxo-1,6-dihydro-3-pyridinecarboxylate] | < 500 | < 500 |
| CCOC(=O)c1cc(-c2csc(-c3ccnc(NCC(N)=O)c3)n2)c(=O)[nH]c1C [Example 57, Ethyl 5-{2-[2-(carbamoylmethyl-amino)-pyridin-4-yl]-thiazol-4-yl}-2-methyl-6-oxo-1,6-dihydro-3-pyridinecarboxylate] | < 500 | < 500 |
| CCOC(=O)c1cc(-c2csc(-c3ccnc(NCCNC(C)=O)c3)n2)c(=O)[nH]c1C [Example 58] | < 500 | < 500 |
| Cc1[nH]c(=O)c(-c2csc(-c3ccnc(NCC4CC4)c3)n2)cc1C(=O)NCC1CC1 [Example 60, N-(Cyclopropylmethyl)-5-(2-(2-((cyclopropylmethyl)amino)-4-pyridinyl)-1,3-thiazol-4-yl)-2-methyl-6-oxo-1,6-dihydro-3-pyridinecarboxamide] | < 500 | < 500 |
| CCOC(=O)c1cc(-c2csc(-c3ccnc(NCC4CC4)c3)n2)c(=O)[nH]c1C [Example 61, Ethyl 5-{2-[2-(cyclopropylmethyl-amino)-pyridin-4-yl]-thiazol-4-yl}-2-methyl-6-oxo-1,6-dihydro-3-pyridinecarboxylate] | < 500 | < 500 |
| CCOC(=O)c1cc(-c2csc(-c3ccnc(NCC4CCCC4)c3)n2)c(=O)[nH]c1C [Example 62, Ethyl 5-{2-[2-(Cyclopentyl)methylamino-pyridin-4-yl]-thiazol-4-yl}-2-methyl-6-oxo-1,6-dihydro-3-pyridinecarboxylate] | < 500 | < 500 |
| CCOC(=O)c1cc(-c2csc(-c3ccnc(N)c3)n2)c(=O)[nH]c1C [Example 65, Ethyl 2-methyl-6-oxo-5-(2-(2-(amino)-4-pyridinyl)-1,3-thiazol-4-yl)-1,6-dihydro-3-pyridinecarboxylate] | < 500 | < 500 |
| CCOC(=O)c1cc(-c2csc(NC)n2)c(=O)[nH]c1C [Example 67, Ethyl 2-methyl-5-[2-(methylamino)(1,3-thiazol-4-yl)]-6-oxo-1,6-dihydro-3-pyridinecarboxylate] | < 500 | < 500 |
| CCOC(=O)c1cc(-c2csc(CS(=O)(=O)c3ccccc3)n2)c(=O)[nH]c1C [Example 75, Ethyl 2-methyl-6-oxo-5-{2-[(phenylsulfonyl)methyl](1,3-thiazol-4-yl)}-1,6-dihydro-3-pyridinecarboxylate] | < 500 | < 500 |
| CCOC(=O)c1cc(-c2csc(CS(=O)(=O)c3ccccn3)n2)c(=O)[nH]c1C [Example 77, Ethyl 2-methyl-6-oxo-5-{2-[(2-pyridylsulfonyl)methyl](1,3-thiazol-4-yl)}-1,6-dihydro-3-pyridinecarboxylate] | < 500 | < 500 |
| CCOC(=O)c1cc(-c2csc(C(C)(C)S(=O)(=O)c3ccccc3)n2)c(=O)[nH]c1C [Example 78, Ethyl 2-methyl-5-(2-(1-methyl-1-(phenylsulfonyl)ethyl)-1,3-thiazol-4-yl)-6-oxo-1,6-dihydro-3-pyridinecarboxylate] | < 500 | < 500 |
| CCOC(=O)c1cc(-c2csc(CS(=O)(=O)c3ccccc3)n2)c(=O)[nH]c1C1CC1 [Example 80, Ethyl 2-cyclopropyl-6-oxo-5-(2-((phenylsulfonyl)methyl)-1,3-thiazol-4-yl)-1,6-dihydro-3-pyridinecarboxylate] | < 500 | < 500 |
| Cc1[nH]c(=O)c(-c2csc(-c3ccncc3)n2)cc1Br [Example 82, 5-Bromo-6-methyl-3-(2-(4-pyridinyl)-1,3-thiazol-4-yl)-2(1H)-pyridinone] | < 500 | < 500 |
| CCOC(=O)c1cc(-c2csc(-c3ccnc(NC)c3)n2)c(=O)[nH]c1C [Example 83, Ethyl 2-methyl-5-(2-(2-(methylamino)-4-pyridinyl)-1,3-thiazol-4-yl)-6-oxo-1,6-dihydro-3-pyridinecarboxylate] | < 500 | < 500 |
| CCOC(=O)c1cc(-c2csc(-c3ccnc(NCc4ccccn4)c3)n2)c(=O)[nH]c1C [Example 90, Ethyl 2-methyl-6-oxo-5-(2-(2-((2-pyridinylmethyl)amino)-4-pyridinyl)-1,3-thiazol-4-yl)-1,6-dihydro-3-pyridinecarboxylate] | < 500 | < 500 |
| CCOC(=O)c1cc(-c2csc(-c3ccnc(NC)c3)n2)c(=O)[nH]c1C(C)C [Example 94, Ethyl 5-[2-(methylamino-pyridin-4-yl)-thiazol-4-yl]-2-isopropyl-6-oxo-1,6-dihydro-3-pyridinecarboxylate] | < 500 | < 500 |
| Cc1[nH]c(=O)c(-c2csc(-c3ccncc3)n2)cc1C(=O)OC(C)(C)C [Example 95, 1,1-Dimethylethyl 2-methyl-6-oxo-5-(2-(4-pyridinyl)-1,3-thiazol-4-yl)-1,6-dihydro-3-pyridinecarboxylate] | < 500 | < 500 |
| CCc1[nH]c(=O)c(-c2csc(-c3ccncc3)n2)cc1C(=O)OCCN1CCCC1 [Example 99, 2-(1-Pyrrolidinyl)ethyl 2-ethyl-6-oxo-5-(2-(4-pyridinyl)-1,3-thiazol-4-yl)-1,6-dihydro-3-pyridinecarboxylate] | < 500 | < 500 |
| CCc1ccc(-c2csc(-c3ccncc3)n2)c(=O)[nH]1 [Example 100, 6-Ethyl-3-(2-pyridin-4-yl-thiazol-4-yl)-1H-pyridin-2-one] | < 500 | < 500 |
| CC(C)c1ccc(-c2csc(-c3ccncc3)n2)c(=O)[nH]1 [Example 101, 6-Isopropyl-3-(2-pyridin-4-yl-thiazol-4-yl)-1H-pyridin-2-one] | < 500 | < 500 |
| CCc1[nH]c(=O)c(-c2csc(-c3ccncc3)n2)cc1C(=O)OCCCN(CC)CC [Example 102, 3-(Diethylamino)propyl 2-ethyl-6-oxo-5-(2-(4-pyridinyl)-1,3-thiazol-4-yl)-1,6-dihydro-3-pyridinecarboxylate] | < 500 | < 500 |
| CCN(CC)CCCOC(=O)c1cc(-c2csc(-c3ccncc3)n2)c(=O)[nH]c1C(C)C [Example 103, 3-(Diethylamino)propyl 2-(1-methylethyl)-6-oxo-5-(2-(4-pyridinyl)-1,3-thiazol-4-yl)-1,6-dihydro-3-pyridinecarboxylate] | < 500 | < 500 |
